Laboratory results taken from the supplement of paper PMC11732987, “Enantioselective OTUD7B fragment discovery through chemoproteomics screening and high-throughput optimisation” (Communications Chemistry, 2025).
This is one part of the list. The data scatter; read single values as rough.

By UniProt entry, the sequences of proteins in these tests, tags left out. Where a name states a change or a piece, a line headed by the entry shows the natural chain unless it says otherwise. Residues count along the entry.
UniProt P63167, 10-31: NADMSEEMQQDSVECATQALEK
UniProt Q6P2E9: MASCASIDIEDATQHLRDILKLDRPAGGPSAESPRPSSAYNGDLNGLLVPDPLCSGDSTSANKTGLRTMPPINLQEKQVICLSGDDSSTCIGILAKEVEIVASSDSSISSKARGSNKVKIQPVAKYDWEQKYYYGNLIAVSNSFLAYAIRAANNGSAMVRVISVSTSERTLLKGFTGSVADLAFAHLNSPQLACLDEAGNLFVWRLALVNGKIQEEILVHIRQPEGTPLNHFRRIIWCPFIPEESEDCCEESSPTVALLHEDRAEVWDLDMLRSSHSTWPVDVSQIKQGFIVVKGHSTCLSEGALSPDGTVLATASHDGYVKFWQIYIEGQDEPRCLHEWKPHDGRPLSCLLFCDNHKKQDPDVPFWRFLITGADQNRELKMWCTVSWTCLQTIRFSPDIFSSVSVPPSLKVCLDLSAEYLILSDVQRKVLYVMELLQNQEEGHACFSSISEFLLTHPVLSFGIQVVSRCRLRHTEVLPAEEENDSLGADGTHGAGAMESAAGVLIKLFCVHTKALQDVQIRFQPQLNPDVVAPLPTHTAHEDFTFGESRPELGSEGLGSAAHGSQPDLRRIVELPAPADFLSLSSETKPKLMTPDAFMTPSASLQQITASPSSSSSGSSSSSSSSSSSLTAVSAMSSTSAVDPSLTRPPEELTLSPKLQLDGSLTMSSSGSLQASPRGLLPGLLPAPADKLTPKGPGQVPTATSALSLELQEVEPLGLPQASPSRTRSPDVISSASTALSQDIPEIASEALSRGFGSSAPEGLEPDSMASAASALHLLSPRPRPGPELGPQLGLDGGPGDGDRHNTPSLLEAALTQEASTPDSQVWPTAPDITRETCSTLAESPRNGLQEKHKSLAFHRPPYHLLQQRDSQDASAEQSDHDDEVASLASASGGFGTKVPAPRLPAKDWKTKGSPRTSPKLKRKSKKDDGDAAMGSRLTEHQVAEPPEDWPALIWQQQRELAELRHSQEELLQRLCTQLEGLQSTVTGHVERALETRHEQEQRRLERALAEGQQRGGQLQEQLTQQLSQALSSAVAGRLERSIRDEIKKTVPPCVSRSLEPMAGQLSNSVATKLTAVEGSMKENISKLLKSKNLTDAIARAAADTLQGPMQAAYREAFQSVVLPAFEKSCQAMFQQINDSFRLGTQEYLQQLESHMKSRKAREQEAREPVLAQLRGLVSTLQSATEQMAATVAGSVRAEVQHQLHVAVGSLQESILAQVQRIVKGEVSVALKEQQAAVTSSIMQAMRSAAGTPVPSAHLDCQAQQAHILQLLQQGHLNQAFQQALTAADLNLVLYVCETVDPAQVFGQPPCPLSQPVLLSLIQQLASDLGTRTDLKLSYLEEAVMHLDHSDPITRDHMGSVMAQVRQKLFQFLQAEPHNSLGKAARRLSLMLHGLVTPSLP
UniProt P26641, 254-275: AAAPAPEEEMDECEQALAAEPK
UniProt Q7L2H7, 130-149: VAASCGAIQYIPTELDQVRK
UniProt Q9GZT9: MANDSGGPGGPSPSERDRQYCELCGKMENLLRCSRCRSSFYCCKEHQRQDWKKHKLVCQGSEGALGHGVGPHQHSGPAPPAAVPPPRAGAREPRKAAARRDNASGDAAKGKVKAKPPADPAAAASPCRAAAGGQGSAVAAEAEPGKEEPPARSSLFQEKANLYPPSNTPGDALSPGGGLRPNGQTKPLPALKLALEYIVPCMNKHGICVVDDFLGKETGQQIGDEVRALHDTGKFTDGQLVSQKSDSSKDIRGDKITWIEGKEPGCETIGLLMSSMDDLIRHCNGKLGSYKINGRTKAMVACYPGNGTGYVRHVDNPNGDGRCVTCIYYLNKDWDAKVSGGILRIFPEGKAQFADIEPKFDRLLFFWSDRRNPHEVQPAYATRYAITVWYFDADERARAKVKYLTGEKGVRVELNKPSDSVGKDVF
UniProt Q8NCM8: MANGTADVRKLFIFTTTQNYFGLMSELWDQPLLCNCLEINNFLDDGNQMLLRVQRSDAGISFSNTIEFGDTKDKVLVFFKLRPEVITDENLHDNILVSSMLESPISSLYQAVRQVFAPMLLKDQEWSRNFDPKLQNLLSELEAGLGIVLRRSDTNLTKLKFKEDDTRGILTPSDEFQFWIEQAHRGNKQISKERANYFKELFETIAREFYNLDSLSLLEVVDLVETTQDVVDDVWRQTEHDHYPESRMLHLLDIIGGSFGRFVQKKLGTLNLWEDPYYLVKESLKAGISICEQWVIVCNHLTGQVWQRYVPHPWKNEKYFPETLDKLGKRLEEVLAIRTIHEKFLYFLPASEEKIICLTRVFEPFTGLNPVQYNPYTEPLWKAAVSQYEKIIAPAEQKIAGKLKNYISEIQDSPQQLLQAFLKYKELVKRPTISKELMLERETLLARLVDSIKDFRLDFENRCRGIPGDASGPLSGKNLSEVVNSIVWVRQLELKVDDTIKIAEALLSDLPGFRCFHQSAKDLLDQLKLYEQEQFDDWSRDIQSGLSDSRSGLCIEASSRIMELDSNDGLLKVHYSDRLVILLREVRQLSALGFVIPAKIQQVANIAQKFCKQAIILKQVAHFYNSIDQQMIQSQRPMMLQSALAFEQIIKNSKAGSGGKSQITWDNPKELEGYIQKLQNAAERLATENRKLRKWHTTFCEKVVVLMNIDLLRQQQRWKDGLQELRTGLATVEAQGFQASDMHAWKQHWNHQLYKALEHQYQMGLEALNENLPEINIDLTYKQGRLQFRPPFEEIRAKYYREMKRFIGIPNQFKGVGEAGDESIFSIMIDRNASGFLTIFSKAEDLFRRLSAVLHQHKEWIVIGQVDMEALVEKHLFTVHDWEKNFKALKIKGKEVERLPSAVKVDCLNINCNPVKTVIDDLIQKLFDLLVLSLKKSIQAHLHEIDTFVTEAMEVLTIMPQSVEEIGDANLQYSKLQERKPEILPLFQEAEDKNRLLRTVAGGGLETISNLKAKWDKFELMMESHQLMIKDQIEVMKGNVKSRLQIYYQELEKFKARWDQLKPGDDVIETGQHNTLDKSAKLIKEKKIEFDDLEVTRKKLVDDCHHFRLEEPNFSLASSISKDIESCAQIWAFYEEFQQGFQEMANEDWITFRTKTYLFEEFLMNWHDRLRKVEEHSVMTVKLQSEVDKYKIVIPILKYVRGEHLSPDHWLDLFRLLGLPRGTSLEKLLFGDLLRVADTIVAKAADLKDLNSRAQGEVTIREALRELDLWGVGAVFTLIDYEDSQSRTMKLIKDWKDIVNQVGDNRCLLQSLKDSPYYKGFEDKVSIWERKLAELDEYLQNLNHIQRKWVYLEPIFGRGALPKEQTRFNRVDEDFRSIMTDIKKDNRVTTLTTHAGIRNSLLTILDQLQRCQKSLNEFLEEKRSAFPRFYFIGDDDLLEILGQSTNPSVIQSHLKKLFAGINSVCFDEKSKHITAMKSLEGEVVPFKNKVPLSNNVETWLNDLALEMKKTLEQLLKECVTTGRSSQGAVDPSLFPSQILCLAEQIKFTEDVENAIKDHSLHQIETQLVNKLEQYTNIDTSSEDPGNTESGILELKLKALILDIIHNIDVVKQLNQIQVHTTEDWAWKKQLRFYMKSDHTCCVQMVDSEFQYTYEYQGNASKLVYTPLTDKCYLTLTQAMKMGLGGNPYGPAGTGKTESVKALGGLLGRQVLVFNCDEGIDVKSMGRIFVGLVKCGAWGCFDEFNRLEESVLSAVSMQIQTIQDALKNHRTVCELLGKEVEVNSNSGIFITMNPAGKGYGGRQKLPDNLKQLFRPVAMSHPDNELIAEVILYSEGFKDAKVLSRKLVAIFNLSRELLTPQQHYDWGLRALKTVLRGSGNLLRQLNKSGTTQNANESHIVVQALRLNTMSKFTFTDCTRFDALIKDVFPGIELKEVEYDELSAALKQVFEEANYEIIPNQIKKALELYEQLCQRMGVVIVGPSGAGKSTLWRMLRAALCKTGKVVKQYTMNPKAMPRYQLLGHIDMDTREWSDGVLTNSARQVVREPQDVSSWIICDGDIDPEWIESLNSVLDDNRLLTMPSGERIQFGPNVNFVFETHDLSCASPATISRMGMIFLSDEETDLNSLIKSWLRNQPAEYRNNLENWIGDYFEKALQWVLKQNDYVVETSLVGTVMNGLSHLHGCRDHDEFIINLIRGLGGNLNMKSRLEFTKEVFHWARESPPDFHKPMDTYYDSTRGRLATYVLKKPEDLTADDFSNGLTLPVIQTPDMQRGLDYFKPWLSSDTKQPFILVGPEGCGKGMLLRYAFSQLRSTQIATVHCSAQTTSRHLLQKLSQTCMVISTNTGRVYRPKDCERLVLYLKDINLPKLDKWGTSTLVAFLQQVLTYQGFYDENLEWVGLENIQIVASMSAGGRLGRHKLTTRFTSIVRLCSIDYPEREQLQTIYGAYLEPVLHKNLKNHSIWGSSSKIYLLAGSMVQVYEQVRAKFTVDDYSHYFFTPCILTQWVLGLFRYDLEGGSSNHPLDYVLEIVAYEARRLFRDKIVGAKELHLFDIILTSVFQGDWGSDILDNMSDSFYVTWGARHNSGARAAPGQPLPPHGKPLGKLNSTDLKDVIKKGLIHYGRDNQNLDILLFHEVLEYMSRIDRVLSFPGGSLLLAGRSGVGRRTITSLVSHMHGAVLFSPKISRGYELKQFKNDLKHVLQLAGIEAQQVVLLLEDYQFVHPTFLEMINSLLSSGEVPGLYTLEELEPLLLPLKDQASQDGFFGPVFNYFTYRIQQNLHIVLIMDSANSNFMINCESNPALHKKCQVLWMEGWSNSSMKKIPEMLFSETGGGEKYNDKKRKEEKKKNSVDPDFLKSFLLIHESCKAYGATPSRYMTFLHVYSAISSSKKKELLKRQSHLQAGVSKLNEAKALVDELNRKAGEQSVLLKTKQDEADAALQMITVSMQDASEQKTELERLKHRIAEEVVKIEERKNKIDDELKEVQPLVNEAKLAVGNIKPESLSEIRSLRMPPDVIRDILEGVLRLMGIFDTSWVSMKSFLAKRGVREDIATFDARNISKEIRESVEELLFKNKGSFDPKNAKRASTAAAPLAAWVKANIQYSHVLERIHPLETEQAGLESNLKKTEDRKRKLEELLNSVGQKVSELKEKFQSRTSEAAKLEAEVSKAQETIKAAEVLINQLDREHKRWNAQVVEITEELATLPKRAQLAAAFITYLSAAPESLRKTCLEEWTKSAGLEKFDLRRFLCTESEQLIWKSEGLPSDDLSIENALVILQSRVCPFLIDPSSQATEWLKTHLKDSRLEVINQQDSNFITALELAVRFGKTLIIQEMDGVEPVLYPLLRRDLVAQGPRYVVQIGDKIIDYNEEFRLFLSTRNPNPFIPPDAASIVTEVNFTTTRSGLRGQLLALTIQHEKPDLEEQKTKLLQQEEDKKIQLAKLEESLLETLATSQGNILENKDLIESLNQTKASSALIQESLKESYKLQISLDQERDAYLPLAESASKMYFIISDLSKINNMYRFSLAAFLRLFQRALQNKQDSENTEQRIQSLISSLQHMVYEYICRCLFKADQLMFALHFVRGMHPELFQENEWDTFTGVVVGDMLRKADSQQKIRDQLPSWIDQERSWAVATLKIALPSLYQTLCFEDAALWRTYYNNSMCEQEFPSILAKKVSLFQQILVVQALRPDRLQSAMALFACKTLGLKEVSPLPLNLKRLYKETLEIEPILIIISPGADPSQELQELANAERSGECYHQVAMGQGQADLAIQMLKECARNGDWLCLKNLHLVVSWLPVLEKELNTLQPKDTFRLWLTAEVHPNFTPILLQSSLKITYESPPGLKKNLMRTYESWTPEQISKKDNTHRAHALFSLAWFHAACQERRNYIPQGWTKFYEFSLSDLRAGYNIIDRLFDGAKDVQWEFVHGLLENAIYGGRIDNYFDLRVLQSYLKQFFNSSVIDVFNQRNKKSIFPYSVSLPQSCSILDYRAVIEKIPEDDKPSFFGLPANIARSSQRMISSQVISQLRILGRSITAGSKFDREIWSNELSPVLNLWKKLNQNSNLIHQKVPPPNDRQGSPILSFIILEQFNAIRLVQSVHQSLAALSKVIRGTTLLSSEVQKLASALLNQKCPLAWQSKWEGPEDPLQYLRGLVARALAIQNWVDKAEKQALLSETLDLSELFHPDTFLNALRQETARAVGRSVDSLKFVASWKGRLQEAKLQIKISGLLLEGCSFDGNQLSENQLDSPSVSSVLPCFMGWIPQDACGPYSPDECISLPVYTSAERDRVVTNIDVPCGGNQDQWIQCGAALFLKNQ
UniProt O00303, whole entry, looked up: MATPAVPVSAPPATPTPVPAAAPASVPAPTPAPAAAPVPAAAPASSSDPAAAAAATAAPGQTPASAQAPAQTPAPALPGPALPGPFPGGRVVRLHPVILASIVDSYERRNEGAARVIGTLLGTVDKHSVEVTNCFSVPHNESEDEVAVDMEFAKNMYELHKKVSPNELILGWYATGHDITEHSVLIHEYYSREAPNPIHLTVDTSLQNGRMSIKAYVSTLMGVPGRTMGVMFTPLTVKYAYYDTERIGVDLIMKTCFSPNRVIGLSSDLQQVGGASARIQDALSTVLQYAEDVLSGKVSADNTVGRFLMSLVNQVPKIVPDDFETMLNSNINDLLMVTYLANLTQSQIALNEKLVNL
UniProt Q8NDI1, 663-686: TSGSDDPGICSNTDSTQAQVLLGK
UniProt Q9UI10, 55-75: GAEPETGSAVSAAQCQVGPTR

compound: ClCC(=O)N[C@@H]1CCCc2ccccc12; experiment: log2 mean competition ratio of IA-DTB cysteine labelling (DMSO/compound) (log2 ratio); higher = stronger cysteine engagement by compound; settings: 50 µM; treatment time: 4 h; cell line lysate: HEK293T
Experimental: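 IA-DTB competitive cysteine chemoproteomics in HEK293T RIPA lysate. Lysates were treated with compound 29 or 30 at 50 or 200 µM for 4 h, then IA-DTB (500 µM, 1 h), trypsin-digested, NeutrAvidin-enriched and analysed by diaPASEF. Competition ratio = intensity DMSO / intensity compound (n=4 treated, n=64 DMSO); binding: mean log2 CR ≥ 1 and p ≤ 0.05 plus QC filters. Target is the cysteine site.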

Target | log2 mean competition ratio
DYNLL1 C24 (UniProt P63167) | -0.345
ELL C121 (UniProt P55199) | -0.129
EIF2S3B C434 | -0.274
EIF2AK4 C454 (UniProt Q9P2K8) | -0.225
EDC4 C4 (UniProt Q6P2E9) | -0.216
EARS2 C386 (UniProt Q5JPH6) | 0.16
DYNC1H1 C3940 (UniProt Q14204) | 0.0469
EIF5B C1126 (UniProt O60841) | -0.363
EDC3 C137 (UniProt Q96F86) | -0.0735
DYNLT3 C8 (UniProt P51808) | 0.0352
EEF1G C266 (UniProt P26641) | -0.461
EIF3M C134 (UniProt Q7L2H7) | -0.149
DYNC1LI1 C117 (UniProt Q9Y6G9) | 0.453
EGFL7 C117 (UniProt Q9UHF1) | 0.0489
DUS3L C396 (UniProt Q96G46) | 0.0941
EIF3A C160 (UniProt Q14152) | 0.346
DTNB C197 | -0.218
EIF4B C457 | 0.131
DTX3L C175 (UniProt Q8TDB6) | -0.0622

Target | log2 mean competition ratio
E2F7 C151 | 0.118
DSP C3 (UniProt P15924) | 0.0833
EGLN1 C127 (UniProt Q9GZT9) | -0.0691
EED C126 | -0.161
EIF2S3B C105 | -0.0459
DYNC2H1 C3657 (UniProt Q8NCM8) | 0.179
DRG2 C319 (UniProt P55039) | 0.133
EIF3F C256 (UniProt O00303) | -0.181
ECT2 C796 (UniProt Q9H8V3) | -0.0352
DROSHA C920 (UniProt Q9NRR4) | -0.302
EHBP1 C672 (UniProt Q8NDI1) | -0.457
EGLN1 C208 (UniProt Q9GZT9) | 0.0772
EDC4 C1054 (UniProt Q6P2E9) | 0.0752
EI24 C24 (UniProt O14681) | 0.492
ELF2 C348 (UniProt Q15723) | -0.0662
EIF2B4 C69 (UniProt Q9UI10) | -0.186
EIF2B1 C115 (UniProt Q14232) | 0.238
DYNC2H1 C3778 (UniProt Q8NCM8) | 0.165

same assay, conditions: 200 µM; treatment time: 4 h; cell line lysate: HEK293T

Target | log2 mean competition ratio
DYNLL1 C24 (UniProt P63167) | -0.0409
ELL C121 (UniProt P55199) | -0.203
EIF2S3B C434 | -0.187
EIF2AK4 C454 (UniProt Q9P2K8) | 0.345
EDC4 C4 (UniProt Q6P2E9) | 0.154
EARS2 C386 (UniProt Q5JPH6) | -0.517
DYNC1H1 C3940 (UniProt Q14204) | -0.253
EIF5B C1126 (UniProt O60841) | 0.107
EDC3 C137 (UniProt Q96F86) | 0.114
DYNLT3 C8 (UniProt P51808) | -0.169
EEF1G C266 (UniProt P26641) | -0.031
EIF3M C134 (UniProt Q7L2H7) | -0.16
DYNC1LI1 C117 (UniProt Q9Y6G9) | 0.561
EGFL7 C117 (UniProt Q9UHF1) | 0.241
DUS3L C396 (UniProt Q96G46) | 0.713
EIF3A C160 (UniProt Q14152) | 0.121
DTNB C197 | 0.0416
EIF4B C457 | -0.393
DTX3L C175 (UniProt Q8TDB6) | 0.253

Target | log2 mean competition ratio
E2F7 C151 | 0.155
DSP C3 (UniProt P15924) | 0.205
EGLN1 C127 (UniProt Q9GZT9) | 0.223
EED C126 | -0.172
EIF2S3B C105 | -0.0782
DYNC2H1 C3657 (UniProt Q8NCM8) | 0.324
DRG2 C319 (UniProt P55039) | -0.403
EIF3F C256 (UniProt O00303) | -0.184
ECT2 C796 (UniProt Q9H8V3) | 0.0648
DROSHA C920 (UniProt Q9NRR4) | -0.134
EHBP1 C672 (UniProt Q8NDI1) | 0.225
EGLN1 C208 (UniProt Q9GZT9) | 0.468
EDC4 C1054 (UniProt Q6P2E9) | 0.253
EI24 C24 (UniProt O14681) | -0.238
ELF2 C348 (UniProt Q15723) | 0.0425
EIF2B4 C69 (UniProt Q9UI10) | -0.0945
EIF2B1 C115 (UniProt Q14232) | -0.0307
DYNC2H1 C3778 (UniProt Q8NCM8) | 0.0289
